Assay [1] concerns the target Cdk1 protein (human) (UniProt P06493). Briefly: Co-IP from transfected U2OS extracts with Cdk1 antibody, Western blot with T7 tag antibody. Background: Immunoblotting shows a protein as a band on a membrane.
For assay [2] the target is unchanged. The assay is described as follows: Co-IP with Cdk1 polyclonal antibody, Western blot with T7 epitope antibody.
The target in assay [3] is T1, endogenous mouse FoxM1B protein (mouse) (UniProt O08696).
T1 sequence (looked up): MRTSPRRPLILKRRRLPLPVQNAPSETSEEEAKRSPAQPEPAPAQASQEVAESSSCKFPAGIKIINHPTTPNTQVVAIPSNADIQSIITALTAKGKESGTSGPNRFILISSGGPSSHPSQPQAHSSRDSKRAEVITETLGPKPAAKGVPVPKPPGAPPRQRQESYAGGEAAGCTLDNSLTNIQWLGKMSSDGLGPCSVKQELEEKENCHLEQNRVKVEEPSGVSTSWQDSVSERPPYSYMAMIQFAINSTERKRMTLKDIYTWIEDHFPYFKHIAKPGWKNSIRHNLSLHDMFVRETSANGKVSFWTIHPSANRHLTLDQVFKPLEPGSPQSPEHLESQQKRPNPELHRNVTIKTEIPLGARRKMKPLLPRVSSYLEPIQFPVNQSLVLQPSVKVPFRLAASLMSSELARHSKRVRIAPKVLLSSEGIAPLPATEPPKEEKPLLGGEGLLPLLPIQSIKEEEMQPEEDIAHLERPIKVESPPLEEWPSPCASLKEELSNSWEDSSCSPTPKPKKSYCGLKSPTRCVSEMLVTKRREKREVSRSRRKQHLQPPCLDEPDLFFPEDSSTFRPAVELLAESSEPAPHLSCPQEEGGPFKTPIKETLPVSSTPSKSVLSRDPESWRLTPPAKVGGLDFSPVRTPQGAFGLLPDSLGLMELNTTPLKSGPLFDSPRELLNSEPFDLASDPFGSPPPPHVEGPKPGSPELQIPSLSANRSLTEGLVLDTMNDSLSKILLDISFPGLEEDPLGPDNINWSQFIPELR
The assay is described as follows: Co-IP with p19ARF antibody AB80, Western blot with mouse FoxM1B antibody, mouse liver and MEF extracts.

Amino acid sequences for entries named in this document (tags omitted).
UniProt P06493: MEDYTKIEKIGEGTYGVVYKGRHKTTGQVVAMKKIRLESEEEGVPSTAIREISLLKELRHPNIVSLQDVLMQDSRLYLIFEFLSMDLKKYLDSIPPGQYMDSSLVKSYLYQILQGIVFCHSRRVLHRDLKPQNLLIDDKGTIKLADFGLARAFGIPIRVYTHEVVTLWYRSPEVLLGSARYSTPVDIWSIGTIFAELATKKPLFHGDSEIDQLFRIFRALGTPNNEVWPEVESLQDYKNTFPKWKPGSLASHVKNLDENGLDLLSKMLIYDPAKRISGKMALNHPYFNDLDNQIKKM

For assay [4], the target named is T2, GFP-FoxM1B fusion protein, wild type (CMV GFP-FoxM1B; GFP-T7-FoxM1B WT; GFP-FoxM1B 1-748 full-length) (human) (UniProt Q08050).
T2 sequence: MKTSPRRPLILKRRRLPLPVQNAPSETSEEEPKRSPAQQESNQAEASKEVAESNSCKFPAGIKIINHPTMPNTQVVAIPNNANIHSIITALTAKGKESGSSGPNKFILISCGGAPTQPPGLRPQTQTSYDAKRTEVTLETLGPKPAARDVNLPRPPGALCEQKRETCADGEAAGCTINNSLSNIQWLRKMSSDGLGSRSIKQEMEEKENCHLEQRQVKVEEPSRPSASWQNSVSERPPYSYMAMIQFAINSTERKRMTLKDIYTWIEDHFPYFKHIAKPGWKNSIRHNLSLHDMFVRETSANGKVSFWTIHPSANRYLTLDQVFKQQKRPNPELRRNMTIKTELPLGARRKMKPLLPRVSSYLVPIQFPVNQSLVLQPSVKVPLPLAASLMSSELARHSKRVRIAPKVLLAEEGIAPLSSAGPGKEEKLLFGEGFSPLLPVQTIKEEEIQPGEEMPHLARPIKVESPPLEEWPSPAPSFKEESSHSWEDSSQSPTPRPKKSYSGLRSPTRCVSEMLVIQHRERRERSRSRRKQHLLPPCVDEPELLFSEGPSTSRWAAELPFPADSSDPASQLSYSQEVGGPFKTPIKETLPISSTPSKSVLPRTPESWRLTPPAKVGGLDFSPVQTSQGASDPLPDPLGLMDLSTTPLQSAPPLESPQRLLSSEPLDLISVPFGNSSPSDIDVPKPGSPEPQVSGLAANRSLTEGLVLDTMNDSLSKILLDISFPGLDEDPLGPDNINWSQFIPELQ
Briefly: Co-IP of FIG. 15D, transfected U2OS extracts.

In assay [5] the target is T2, GFP-FoxM1B fusion protein, wild type (CMV GFP-FoxM1B; GFP-T7-FoxM1B WT; GFP-FoxM1B 1-748 full-length) (human). The assay is described as follows: Co-IP with HA antibody, Western blot with GFP antibody, transfected U2OS extracts.

No constants are given. Whether binding was seen depends on the method and setting. Binding seen in cells or lysates may run through a third protein. Some entries that bind do so weakly or less than the wild type. For some assays here: Sequences can lack the tags named with a protein.

We go through seven molecules from US20130196933A1.

B1: T7-FoxM1B WT protein (CMV T7-FoxM1B; CMV WT FoxM1B 1-748) (protein, not shown: small tags and cut ends)
chain: MKTSPRRPLILKRRRLPLPVQNAPSETSEEEPKRSPAQQESNQAEASKEVAESNSCKFPAGIKIINHPTMPNTQVVAIPNNANIHSIITALTAKGKESGSSGPNKFILISCGGAPTQPPGLRPQTQTSYDAKRTEVTLETLGPKPAARDVNLPRPPGALCEQKRETCADGEAAGCTINNSLSNIQWLRKMSSDGLGSRSIKQEMEEKENCHLEQRQVKVEEPSRPSASWQNSVSERPPYSYMAMIQFAINSTERKRMTLKDIYTWIEDHFPYFKHIAKPGWKNSIRHNLSLHDMFVRETSANGKVSFWTIHPSANRYLTLDQVFKQQKRPNPELRRNMTIKTELPLGARRKMKPLLPRVSSYLVPIQFPVNQSLVLQPSVKVPLPLAASLMSSELARHSKRVRIAPKVLLAEEGIAPLSSAGPGKEEKLLFGEGFSPLLPVQTIKEEEIQPGEEMPHLARPIKVESPPLEEWPSPAPSFKEESSHSWEDSSQSPTPRPKKSYSGLRSPTRCVSEMLVIQHRERRERSRSRRKQHLLPPCVDEPELLFSEGPSTSRWAAELPFPADSSDPASQLSYSQEVGGPFKTPIKETLPISSTPSKSVLPRTPESWRLTPPAKVGGLDFSPVQTSQGASDPLPDPLGLMDLSTTPLQSAPPLESPQRLLSSEPLDLISVPFGNSSPSDIDVPKPGSPEPQVSGLAANRSLTEGLVLDTMNDSLSKILLDISFPGLDEDPLGPDNINWSQFIPELQ
Turning to B1, the binding result with Cdk1 protein (human) [1] is reported as “binds”.

B2: T7-FoxM1B S657A mutant protein (protein, not shown: small tags and cut ends)
chain: MKTSPRRPLILKRRRLPLPVQNAPSETSEEEPKRSPAQQESNQAEASKEVAESNSCKFPAGIKIINHPTMPNTQVVAIPNNANIHSIITALTAKGKESGSSGPNKFILISCGGAPTQPPGLRPQTQTSYDAKRTEVTLETLGPKPAARDVNLPRPPGALCEQKRETCADGEAAGCTINNSLSNIQWLRKMSSDGLGSRSIKQEMEEKENCHLEQRQVKVEEPSRPSASWQNSVSERPPYSYMAMIQFAINSTERKRMTLKDIYTWIEDHFPYFKHIAKPGWKNSIRHNLSLHDMFVRETSANGKVSFWTIHPSANRYLTLDQVFKQQKRPNPELRRNMTIKTELPLGARRKMKPLLPRVSSYLVPIQFPVNQSLVLQPSVKVPLPLAASLMSSELARHSKRVRIAPKVLLAEEGIAPLSSAGPGKEEKLLFGEGFSPLLPVQTIKEEEIQPGEEMPHLARPIKVESPPLEEWPSPAPSFKEESSHSWEDSSQSPTPRPKKSYSGLRSPTRCVSEMLVIQHRERRERSRSRRKQHLLPPCVDEPELLFSEGPSTSRWAAELPFPADSSDPASQLSYSQEVGGPFKTPIKETLPISSTPSKSVLPRTPESWRLTPPAKVGGLDFSPVQTSQGASDPLPDPLGLMDLSTTPLQSAPPLEAPQRLLSSEPLDLISVPFGNSSPSDIDVPKPGSPEPQVSGLAANRSLTEGLVLDTMNDSLSKILLDISFPGLDEDPLGPDNINWSQFIPELQ
B2: the binding entry with Cdk1 protein (human) [1] is given as “binds”.

B3: T7-FoxM1B T585A mutant protein (protein, not shown: small tags and cut ends)
chain: MKTSPRRPLILKRRRLPLPVQNAPSETSEEEPKRSPAQQESNQAEASKEVAESNSCKFPAGIKIINHPTMPNTQVVAIPNNANIHSIITALTAKGKESGSSGPNKFILISCGGAPTQPPGLRPQTQTSYDAKRTEVTLETLGPKPAARDVNLPRPPGALCEQKRETCADGEAAGCTINNSLSNIQWLRKMSSDGLGSRSIKQEMEEKENCHLEQRQVKVEEPSRPSASWQNSVSERPPYSYMAMIQFAINSTERKRMTLKDIYTWIEDHFPYFKHIAKPGWKNSIRHNLSLHDMFVRETSANGKVSFWTIHPSANRYLTLDQVFKQQKRPNPELRRNMTIKTELPLGARRKMKPLLPRVSSYLVPIQFPVNQSLVLQPSVKVPLPLAASLMSSELARHSKRVRIAPKVLLAEEGIAPLSSAGPGKEEKLLFGEGFSPLLPVQTIKEEEIQPGEEMPHLARPIKVESPPLEEWPSPAPSFKEESSHSWEDSSQSPTPRPKKSYSGLRSPTRCVSEMLVIQHRERRERSRSRRKQHLLPPCVDEPELLFSEGPSTSRWAAELPFPADSSDPASQLSYSQEVGGPFKAPIKETLPISSTPSKSVLPRTPESWRLTPPAKVGGLDFSPVQTSQGASDPLPDPLGLMDLSTTPLQSAPPLESPQRLLSSEPLDLISVPFGNSSPSDIDVPKPGSPEPQVSGLAANRSLTEGLVLDTMNDSLSKILLDISFPGLDEDPLGPDNINWSQFIPELQ
On to B3, for which the binding result with Cdk1 protein (human) [1] is listed as “binds”.

B4: GFP-FoxM1B fusion protein, wild type (CMV GFP-FoxM1B; GFP-T7-FoxM1B WT; GFP-FoxM1B 1-748 full-length) (protein, not shown: large carriers; small tags and cut ends)
chain: MKTSPRRPLILKRRRLPLPVQNAPSETSEEEPKRSPAQQESNQAEASKEVAESNSCKFPAGIKIINHPTMPNTQVVAIPNNANIHSIITALTAKGKESGSSGPNKFILISCGGAPTQPPGLRPQTQTSYDAKRTEVTLETLGPKPAARDVNLPRPPGALCEQKRETCADGEAAGCTINNSLSNIQWLRKMSSDGLGSRSIKQEMEEKENCHLEQRQVKVEEPSRPSASWQNSVSERPPYSYMAMIQFAINSTERKRMTLKDIYTWIEDHFPYFKHIAKPGWKNSIRHNLSLHDMFVRETSANGKVSFWTIHPSANRYLTLDQVFKQQKRPNPELRRNMTIKTELPLGARRKMKPLLPRVSSYLVPIQFPVNQSLVLQPSVKVPLPLAASLMSSELARHSKRVRIAPKVLLAEEGIAPLSSAGPGKEEKLLFGEGFSPLLPVQTIKEEEIQPGEEMPHLARPIKVESPPLEEWPSPAPSFKEESSHSWEDSSQSPTPRPKKSYSGLRSPTRCVSEMLVIQHRERRERSRSRRKQHLLPPCVDEPELLFSEGPSTSRWAAELPFPADSSDPASQLSYSQEVGGPFKTPIKETLPISSTPSKSVLPRTPESWRLTPPAKVGGLDFSPVQTSQGASDPLPDPLGLMDLSTTPLQSAPPLESPQRLLSSEPLDLISVPFGNSSPSDIDVPKPGSPEPQVSGLAANRSLTEGLVLDTMNDSLSKILLDISFPGLDEDPLGPDNINWSQFIPELQ
With B4, the binding result with Cdk1 protein (human) [2] was “binds”.

B5: T7-FoxM1B T596A mutant protein (protein, not shown: small tags and cut ends)
chain: MKTSPRRPLILKRRRLPLPVQNAPSETSEEEPKRSPAQQESNQAEASKEVAESNSCKFPAGIKIINHPTMPNTQVVAIPNNANIHSIITALTAKGKESGSSGPNKFILISCGGAPTQPPGLRPQTQTSYDAKRTEVTLETLGPKPAARDVNLPRPPGALCEQKRETCADGEAAGCTINNSLSNIQWLRKMSSDGLGSRSIKQEMEEKENCHLEQRQVKVEEPSRPSASWQNSVSERPPYSYMAMIQFAINSTERKRMTLKDIYTWIEDHFPYFKHIAKPGWKNSIRHNLSLHDMFVRETSANGKVSFWTIHPSANRYLTLDQVFKQQKRPNPELRRNMTIKTELPLGARRKMKPLLPRVSSYLVPIQFPVNQSLVLQPSVKVPLPLAASLMSSELARHSKRVRIAPKVLLAEEGIAPLSSAGPGKEEKLLFGEGFSPLLPVQTIKEEEIQPGEEMPHLARPIKVESPPLEEWPSPAPSFKEESSHSWEDSSQSPTPRPKKSYSGLRSPTRCVSEMLVIQHRERRERSRSRRKQHLLPPCVDEPELLFSEGPSTSRWAAELPFPADSSDPASQLSYSQEVGGPFKTPIKETLPISSAPSKSVLPRTPESWRLTPPAKVGGLDFSPVQTSQGASDPLPDPLGLMDLSTTPLQSAPPLESPQRLLSSEPLDLISVPFGNSSPSDIDVPKPGSPEPQVSGLAANRSLTEGLVLDTMNDSLSKILLDISFPGLDEDPLGPDNINWSQFIPELQ
Turning to B5, the binding entry with Cdk1 protein (human) [1] was “binds”.

B6: endogenous mouse p19^ARF tumor suppressor protein (protein)
chain: MGRRFLVTVRIQRAGRPLQERVFLVKFVRSRRPRTASCALAFVNMLLRLERILRRGPHRNPGPGDDDGQRSRSSSSAQLRCRFELRGPHYLLPPGDRRSAGRLPGHAGGAARVRGSAGCARCLGSPAARLGPRAGTSRHRAIFAFRWVLFVFRWVVFVYRWERRPDRRA
In the case of B6, in assay [3], the binding entry is given as “binds”.

B7: HA-p19^ARF WT protein (protein, not shown: small tags and cut ends)
chain: MGRRFLVTVRIQRAGRPLQERVFLVKFVRSRRPRTASCALAFVNMLLRLERILRRGPHRNPGPGDDDGQRSRSSSSAQLRCRFELRGPHYLLPPGDRRSAGRLPGHAGGAARVRGSAGCARCLGSPAARLGPRAGTSRHRAIFAFRWVLFVFRWVVFVYRWERRPDRRA
With B7, the binding entry in assay [4] and in assay [5] was “binds” throughout.
